Single values of this set are uncertain.
B1: Rpb7; numbered along this chain (parent)
chain: MFFIKDLSLNITLHPSFFGPRMKQYLKTKLLEEVEGSCTGKFGYILCVLDYDNIDIQRGRILPTDGSAEFNVKYRAVVFKPFKGEVVDGTVVSCSQHGFEVQVGPMKVFVTKHLMPQDLTFNAGSNPPSYQSSEDVITIKSRIRVKIEGCISQVSSIHAIGSIKEDYLGAI

Tests used:
[1] = variants of: B1; test: log2 fold change of mutant abundance, UV-irradiated vs unirradiated; higher = more UV resistant (enriched after UV); details: with Saccharomyces cerevisiae rad7Δ rad26Δ; UV dose (J/m2): 10; genetic background: rad7Δ rad26Δ rpb7Δ + plasmid RPB7 library; outgrowth: 10 cell divisions
[2] = variants of: B1; test: NOISeq theta enrichment statistic, UV-irradiated vs unirradiated (dimensionless); higher = more UV resistant (enriched after UV); details: with Saccharomyces cerevisiae rad7Δ rad26Δ; UV dose (J/m2): 10; genetic background: rad7Δ rad26Δ rpb7Δ + plasmid RPB7 library; outgrowth: 10 cell divisions

| Variant | log2 fold change of mutant abundance [1] | NOISeq theta enrichment statistic [2] |
| --- | --- | --- |
| S129H | -0.478 | -0.265 |
| S129I | 0.11 | 0.103 |
| S129K | 0.572 | 0.325 |
| S129L | -0.158 | -0.336 |
| S129P | -0.232 | -0.388 |
| S129Q | 0.0494 | 0.0315 |
| S129T | -0.137 | -0.583 |
| S129V | -0.163 | -0.121 |
| S129Y | -0.129 | -0.113 |
| Y130C | 0.0383 | 0.0777 |
| Y130D | 0.105 | 0.164 |
| Y130E | 0.358 | 0.146 |
| Y130F | 0.0555 | 0.224 |
| Y130H | -0.153 | -0.341 |
| Y130I | -0.0677 | -0.0646 |
| Y130K | -0.222 | -0.171 |
| Y130L | 0.221 | 0.148 |
| Y130N | -0.194 | -0.403 |
| Y130S | 0.0184 | 0.0238 |
| Y130T | -0.357 | -0.228 |
| Y130V | -0.0695 | -0.0499 |
| Q131E | 0.241 | 0.375 |
| Q131H | 0.0359 | 0.163 |
| Q131I | -0.959 | -0.428 |

| Variant | log2 fold change of mutant abundance [1] | NOISeq theta enrichment statistic [2] |
| --- | --- | --- |
| Q131K | 0.469 | 1.53 |
| Q131L | -0.322 | -1.01 |
| Q131N | 0.639 | 0.32 |
| Q131P | 0.0693 | 0.14 |
| Q131R | 0.278 | 1.02 |
| Q131T | -0.869 | -0.603 |
| Q131Y | 0.262 | 0.113 |
| S132C | -0.0017 | -0.00592 |
| S132D | -0.355 | -0.22 |
| S132G | -0.339 | -0.849 |
| S132I | -0.0275 | -0.0435 |
| S132K | 0.0309 | 0.0286 |
| S132M | -0.227 | -0.175 |
| S132N | 0.365 | 1.07 |
| S132R | -0.0139 | -0.0578 |
| S132T | 0.0442 | 0.0458 |
| S132V | -0.267 | -0.227 |
| S133A | 0.0812 | 0.157 |
| S133C | -0.18 | -0.206 |
| S133D | -1.1 | -0.77 |
| S133F | -0.104 | -0.23 |
| S133H | 0.348 | 0.266 |
| S133I | -0.92 | -0.443 |
| S133L | -0.0839 | -0.0366 |

| Variant | log2 fold change of mutant abundance [1] | NOISeq theta enrichment statistic [2] |
| --- | --- | --- |
| S133N | -0.63 | -0.369 |
| S133P | -0.079 | -0.306 |
| S133T | 0.00573 | 0.0276 |
| S133Y | -0.0978 | -0.335 |
| E134A | -0.0611 | -0.105 |
| E134D | 0.168 | 0.731 |
| E134G | -0.164 | -0.84 |
| E134K | -0.513 | -1.2 |
| E134M | -0.908 | -0.595 |
| E134N | 0.678 | 0.345 |
| E134Q | -0.237 | -0.282 |
| E134R | 0.0432 | 0.0399 |
| E134T | -0.289 | -0.165 |
| E134V | -0.419 | -1.4 |
| E134W | -0.0373 | -0.0254 |
| E134Y | -0.799 | -0.391 |
| D135A | -0.148 | -0.179 |
| D135E | -0.0208 | -0.121 |
| D135G | -0.412 | -1.01 |
| D135H | -0.271 | -0.328 |
| D135I | -1 | -0.525 |
| D135K | 0.289 | 0.199 |
| D135M | -1.09 | -0.525 |
| D135N | -0.225 | -0.543 |

| Variant | log2 fold change of mutant abundance [1] | NOISeq theta enrichment statistic [2] |
| --- | --- | --- |
| D135R | -0.401 | -0.268 |
| D135S | -0.183 | -0.14 |
| D135V | -0.393 | -1.13 |
| D135Y | -0.205 | -0.476 |
| V136A | 0.199 | 0.658 |
| V136C | -0.00552 | -0.00492 |
| V136D | 0.516 | 1.13 |
| V136E | 0.595 | 0.457 |
| V136F | -0.202 | -0.311 |
| V136G | 0.0144 | 0.0246 |
| V136I | 0.0196 | 0.0464 |
| V136L | -0.273 | -0.375 |
| V136N | -0.0973 | -0.048 |
| V136S | -0.282 | -0.195 |
| V136T | -0.445 | -0.21 |
| V136Y | 0.376 | 0.266 |
| I137A | -0.245 | -0.0959 |
| I137D | 0.053 | 0.0306 |
| I137F | -0.121 | -0.361 |
| I137H | -0.028 | -0.0232 |
| I137K | 0.844 | 0.472 |
| I137L | 0.264 | 0.354 |
| I137M | 0.135 | 0.139 |
| I137N | -0.168 | -0.3 |

Pulled one by one from above (seven):

| Variant | log2 fold change of mutant abundance [1] | NOISeq theta enrichment statistic [2] |
| --- | --- | --- |
| S133L | -0.0839 | -0.0366 |
| E134T | -0.289 | -0.165 |
| S129I | 0.11 | 0.103 |
| D135K | 0.289 | 0.199 |
| I137K | 0.844 | 0.472 |
| E134K | -0.513 | -1.2 |
| S129P | -0.232 | -0.388 |

Carrying on:

| Variant | log2 fold change of mutant abundance [1] | NOISeq theta enrichment statistic [2] |
| --- | --- | --- |
| I137S | 0.0702 | 0.102 |
| I137T | 0.00252 | 0.00397 |
| I137V | -0.141 | -0.463 |
| I137Y | -0.131 | -0.0971 |
| T138A | 0.0321 | 0.106 |
| T138H | -0.0618 | -0.0534 |
| T138I | -0.175 | -0.324 |
| T138K | -0.358 | -0.32 |
| T138N | -0.00173 | -0.00345 |
| T138P | -0.341 | -0.439 |
| T138R | -0.552 | -0.335 |
| T138S | 0.0454 | 0.24 |
| T138Y | -0.193 | -0.0987 |
| I139E | -0.572 | -0.296 |
| I139F | 1.02 | 0.59 |
| I139H | 0.0485 | 0.0366 |
| I139K | -0.203 | -0.739 |
| I139L | 0.0932 | 0.38 |
| I139M | -0.0411 | -0.1 |
| I139N | -0.433 | -0.287 |
